PubChem BioAssay AID652243, Drosophila RNAi Screening Center – 2013
Assay: 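Fly regulators of androgen-dependent reporter output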 (primary screen). Cell system: Drosophila S2R+ cells. Reagent: long dsRNA against Drosophila genes. Duration: 72 h (48 h, then 24 h hormone). Conditions: synthetic androgen R1881 at 10 nM for 24 h. Detection: 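Firefly light from an androgen-responsive reporter and Renilla control light per well, raw and unnormalised, for each of two replicates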. Direction: firefly reporter light: higher = more light from androgen-responsive reporter; Renilla control light: higher = more constitutive control signal (cell number, transfection). Active means: 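Hit when the log firefly-to-Renilla ratio dropped or increased by a fixed fold versus the mean of GFP or LacZ controls across duplicate plates; lowering cut given as 1.5 and as 3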. Calls: active = hit: reporter lowered or raised; inactive = no hit.
In all, the deposit lists about 24,000 reagents; shown is an unselected part of those that have a named target and a result. Over the whole deposit, 246 (1%) were called active. 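Plates not normalised; calls are printed but the firefly/Renilla ratio behind them is not deposited; fold cut for lowering reported inconsistently.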 Raw values are not corrected between plates. Names joined by + are all predicted targets of the reagent. Not stated in the record: the amount of reagent.

target | amplicon | firefly reporter light, replicate 1 | firefly reporter light, replicate 2 | Renilla control light, replicate 1 | Renilla control light, replicate 2 | activity call
CG34225 | DRSC38879 | 6.65e5 | 5.42e5 | 1.85e6 | 1.81e6 | inactive
CG18404 | DRSC15323 | 3.12e5 | 3.57e5 | 2.82e6 | 3.39e6 | inactive
Adf1 | DRSC04941 | 1.41e5 | 1.43e5 | 2.87e5 | 3.00e5 | inactive
Adf1 | DRSC04963 | 1.12e6 | 1.00e6 | 3.29e6 | 2.79e6 | inactive
HINT1 | DRSC26502 | 1.08e5 | 59155 | 2.84e5 | 1.45e5 | inactive
Or35a | DRSC03389 | 1.81e5 | 1.84e5 | 1.59e6 | 1.39e6 | inactive
CG14355 | DRSC14818 | 1.22e5 | 82902 | 5.09e5 | 6.64e5 | inactive
CG30416 | DRSC04565 | 2.22e5 | 2.88e5 | 1.55e6 | 1.93e6 | inactive
sno | DRSC20378 | 2.32e5 | 2.45e5 | 7.86e5 | 8.56e5 | inactive
Gr59c | DRSC04185 | 2.14e5 | 2.67e5 | 2.09e6 | 1.69e6 | inactive
Baldspot | DRSC09671 | 2.96e5 | 2.93e5 | 2.91e6 | 2.85e6 | inactive
CG4911 | DRSC10456 | 6.07e5 | 2.91e5 | 4.76e5 | 2.60e5 | inactive
CG14659 | DRSC12245 | 58105 | 81408 | 1.13e6 | 8.29e5 | inactive
CG45105 | DRSC15833 | 1.31e5 | 94196 | 1.17e6 | 1.36e6 | inactive
CG45105 | DRSC25976 | 3.03e5 | 2.99e5 | 8.46e5 | 7.91e5 | inactive
lft | DRSC02236 | 1.25e5 | 2.13e5 | 9.44e5 | 1.79e6 | inactive
S6k | DRSC11276 | 2.50e5 | 1.61e5 | 2.93e6 | 1.84e6 | inactive
S6k | DRSC36708 | – | – | – | – | inactive
S6k | DRSC36709 | – | – | – | – | inactive
CG5762 | DRSC15869 | 74360 | 1.04e5 | 4.13e5 | 4.87e5 | inactive
CG13869 + CG11099 | DRSC06428 | 88008 | 79439 | 1.25e6 | 9.40e5 | inactive
CG13869 + CG11099 | DRSC24218 | 7.69e5 | 6.26e5 | 9.54e5 | 8.52e5 | inactive
Df31 | DRSC03738 | 3.89e5 | 3.98e5 | 2.23e6 | 2.63e6 | inactive
Df31 | DRSC22163 | 6.88e5 | 5.49e5 | 2.44e6 | 1.99e6 | inactive
flr | DRSC09787 | 1.06e6 | 8.32e5 | 1.43e6 | 1.89e6 | inactive
CG2924 | DRSC18525 | 1.38e5 | 75479 | 1.24e6 | 8.08e5 | inactive
CG2924 | DRSC28336 | 1.96e5 | 3.80e5 | 8.96e5 | 1.36e6 | active
Alg3 | DRSC04700 | 1.12e6 | 2.87e5 | 1.94e6 | 7.71e5 | inactive
Seipin | DRSC18654 | 3.04e5 | 3.18e5 | 4.47e6 | 3.62e6 | inactive
Tsp5D | DRSC18380 | 4.04e5 | 4.85e5 | 3.25e6 | 2.81e6 | inactive
toy | DRSC17222 | 89809 | 60662 | 6.32e5 | 5.00e5 | inactive
toy | DRSC25870 | 4.39e5 | 6.75e5 | 6.78e5 | 7.45e5 | inactive
CG6770 | DRSC02992 | 2.71e5 | 1.84e5 | 7.68e5 | 6.45e5 | inactive
CG6770 | DRSC26414 | 2.89e5 | 1.86e5 | 5.80e5 | 6.40e5 | inactive
scrib | DRSC13774 | 1.02e5 | 79720 | 1.67e5 | 1.45e5 | inactive
scrib | DRSC13775 | 64727 | 78148 | 1.74e5 | 1.78e5 | inactive
scrib | DRSC15809 | 70917 | 49372 | 4.50e5 | 5.61e5 | inactive
scrib | DRSC17051 | 1.12e5 | 1.75e5 | 1.80e6 | 1.66e6 | inactive
scrib | DRSC25196 | 6.10e5 | 1.07e6 | 7.86e5 | 9.40e5 | inactive
scrib | DRSC28134 | 5.42e5 | 6.94e5 | 1.08e6 | 1.32e6 | inactive
Mob4 | DRSC04993 | 7.00e5 | 7.43e5 | 1.39e6 | 1.31e6 | inactive
Mob4 | DRSC29567 | 3.78e5 | 4.11e5 | 8.52e5 | 8.52e5 | inactive
CG31522 | DRSC12005 | 2.82e5 | 3.16e5 | 5.68e5 | 6.87e5 | inactive
CG31522 | DRSC29792 | 5.67e5 | 4.00e5 | 1.12e6 | 1.15e6 | inactive
CG7251 | DRSC03039 | 7.01e5 | 9.96e5 | 1.47e6 | 1.70e6 | inactive
CG7251 | DRSC28293 | 3.84e5 | 6.44e5 | 8.85e5 | 1.37e6 | inactive
hop | DRSC20340 | 4.95e5 | 4.38e5 | 2.65e6 | 2.77e6 | inactive
hop | DRSC23334 | 6.08e5 | 6.56e5 | 1.20e5 | 1.49e5 | inactive
hop | DRSC26551 | 2.66e5 | 2.51e5 | 5.49e5 | 2.36e5 | inactive
CCT1 | DRSC16877 | 2.57e5 | 2.70e5 | 2.95e6 | 2.61e6 | inactive
CCT1 | DRSC26661 | 2.53e5 | 2.49e5 | 6.73e5 | 5.01e5 | inactive
CG34354 | DRSC15645 | 2.11e5 | 1.62e5 | 3.04e6 | 3.03e6 | inactive
CG34354 | DRSC23054 | 6.88e5 | 7.61e5 | 1.34e6 | 1.47e6 | inactive
CG17167 | DRSC20902 | 1.55e5 | 1.58e5 | 5.40e5 | 4.42e5 | inactive
CG17167 | DRSC20903 | 2.03e5 | 1.50e5 | 3.15e5 | 2.61e5 | inactive
CG43366 | DRSC04857 | 2.61e5 | 3.62e5 | 2.56e6 | 2.95e6 | inactive
CG43366 | DRSC04864 | 2.96e5 | 3.26e5 | 2.25e6 | 1.74e6 | inactive
CG43366 | DRSC25725 | 1.65e6 | 1.24e6 | 1.47e6 | 1.04e6 | inactive
CG43366 | DRSC27579 | 2.60e5 | 2.47e5 | 6.20e5 | 7.55e5 | inactive

Called active, of those listed so far:
target | amplicon | firefly reporter light, replicate 1 | firefly reporter light, replicate 2 | Renilla control light, replicate 1 | Renilla control light, replicate 2 | activity call
CG2924 | DRSC28336 | 1.96e5 | 3.80e5 | 8.96e5 | 1.36e6 | active
